Test results taken from patent US20150030595A1.
No constants are given. Whether binding was seen depends on the method and setting. Some entries that bind do so weakly or less than the wild type.

Amino acid sequences for entries named in this document (tags omitted). Residues count along the entry.
UniProt P80370, residues 24-383: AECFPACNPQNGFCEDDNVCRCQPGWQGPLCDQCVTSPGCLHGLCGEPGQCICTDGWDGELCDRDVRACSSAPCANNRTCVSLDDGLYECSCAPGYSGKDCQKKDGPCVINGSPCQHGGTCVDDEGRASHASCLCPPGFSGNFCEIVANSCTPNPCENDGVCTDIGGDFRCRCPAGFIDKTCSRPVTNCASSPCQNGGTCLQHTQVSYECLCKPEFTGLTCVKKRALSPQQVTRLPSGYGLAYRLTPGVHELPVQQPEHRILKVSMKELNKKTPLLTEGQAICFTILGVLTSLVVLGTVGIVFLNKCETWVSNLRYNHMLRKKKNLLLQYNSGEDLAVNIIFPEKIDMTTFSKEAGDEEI

How the values were obtained:
[1] = target: T1, DLK1 in the lysate of the myoblast C2C12 cell line (UniProt Q09163); assay: immunoprecipitation from C2C12 lysate with B09, western blot with DLK1 antibody
T1 sequence (looked up): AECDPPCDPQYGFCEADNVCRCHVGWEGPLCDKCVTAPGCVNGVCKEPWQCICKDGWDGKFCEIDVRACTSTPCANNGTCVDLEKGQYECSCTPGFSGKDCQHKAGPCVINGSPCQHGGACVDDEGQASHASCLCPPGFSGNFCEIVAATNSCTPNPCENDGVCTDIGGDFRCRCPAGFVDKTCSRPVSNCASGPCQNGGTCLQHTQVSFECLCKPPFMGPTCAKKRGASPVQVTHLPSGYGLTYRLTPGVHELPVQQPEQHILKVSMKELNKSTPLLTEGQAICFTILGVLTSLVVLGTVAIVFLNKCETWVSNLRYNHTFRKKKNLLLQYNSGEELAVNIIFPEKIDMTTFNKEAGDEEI

[2] = target: DLK1 on 293E cells expressing DLK1 (UniProt P80370); assay: flow cytometry and immunofluorescent staining
[3] = target: DLK1 on 293E cells expressing DLK1 (UniProt P80370); assay: flow cytometry on 293E cells (upper panel); immunofluorescent staining (lower panel)
[4] = target: DLK1 on 293E cells expressing DLK1 (UniProt P80370); assay: flow cytometry on 293E cells expressing DLK1

Measured: binding

B1: human antibody B09 (full-length IgG) (antibody, V domains shown)
VH: QMQLVESGGRLVRPGGSLRLSCAASGFPFTSYAMNWVRQTPGKGLEWVSTITATSGKTYYADSVKGRFTISRDNSRNTLFLQMNSLRAEDTAVYYCVRGESCSGGACSDFDYWGQGALVTVSS
VL: QLVLTQPASVSGSPGQSVTISCTGTSSDIGRYNRVSWYQHHPGKAPKLILNDVTTRPSGFSNRFSGSKSGNTASLTISGLQAEDEADYSCGSYAGSYTYVFGTGTKVTVL
binds: [1] | [2] | [3] | [4]
